Source: publication PMC4346921, “Identification of the Specific Interactors of the Human Lariat RNA Debranching Enzyme 1 Protein” (International Journal of Molecular Sciences, 2015)
No constants are given. Whether binding was seen depends on the method and setting. Binding seen in cells or lysates may run through a third protein. Here binding means that the protein was enriched with, or labelled near, the bait; the list need not be complete. Sequences can lack the tags named with a protein.

Target: T1, Flag-hDbr1 (human) (UniProt Q9UK59)
T1 sequence: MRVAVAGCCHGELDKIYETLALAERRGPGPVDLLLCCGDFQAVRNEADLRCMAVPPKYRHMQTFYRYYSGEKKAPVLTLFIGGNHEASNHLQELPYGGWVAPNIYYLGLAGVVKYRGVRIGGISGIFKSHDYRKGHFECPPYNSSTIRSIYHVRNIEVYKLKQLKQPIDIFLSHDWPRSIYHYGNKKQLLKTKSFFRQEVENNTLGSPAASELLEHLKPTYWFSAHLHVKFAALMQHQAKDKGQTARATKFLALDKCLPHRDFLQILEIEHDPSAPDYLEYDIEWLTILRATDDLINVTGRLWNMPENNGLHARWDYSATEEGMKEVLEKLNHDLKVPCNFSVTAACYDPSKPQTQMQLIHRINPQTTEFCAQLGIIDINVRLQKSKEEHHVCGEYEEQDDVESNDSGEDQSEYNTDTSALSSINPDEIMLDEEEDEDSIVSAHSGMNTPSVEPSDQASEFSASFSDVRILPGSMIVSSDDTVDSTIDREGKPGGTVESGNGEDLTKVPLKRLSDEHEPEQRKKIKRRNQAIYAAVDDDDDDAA
Experiment: affinity purification with mass spectrometry; Flag-hDbr1 precipitated with anti-Flag M2 resin from HEK293T cell extract; SDS-PAGE, Coomassie staining, excised bands identified by MALDI-TOF/MS; Flag-vector extract as control

B1: T7-His-hDrn1 (natural protein, human, UniProt Q69YN2-1 1-538, looked up)
chain: MAQKPLRLLACGDVEGKFDILFNRVQAIQKKSGNFDLLLCVGNFFGSTQDAEWEEYKTGIKKAPIQTYVLGANNQETVKYFQDADGCELAENITYLGRKGIFTGSSGLQIVYLSGTESLNEPVPGYSFSPKDVSSLRMMLCTTSQFKGVDILLTSPWPKCVGNFGNSSGEVDTKKCGSALVSSLATGLKPRYHFAALEKTYYERLPYRNHIILQENAQHATRFIALANVGNPEKKKYLYAFSIVPMKLMDAAELVKQPPDVTENPYRKSGQEASIGKQILAPVEESACQFFFDLNEKQGRKRSSTGRDSKSSPHPKQPRKPPQPPGPCWFCLASPEVEKHLVVNIGTHCYLALAKGGLSDDHVLILPIGHYQSVVELSAEVVEEVEKYKATLRRFFKSRGKWCVVFERNYKSHHLQLQVIPVPISCSTTDDIKDAFITQAQEQQIELLEIPEHSDIKQIAQPGAAYFYVELDTGEKLFHRIKKNFPLQFGREVLASEAILNVPDKSDWRQCQISKEDEETLARRFRKDFEPYDFTLDD
notes: Cwf19L1/hDrn1 cDNA (NM_018294), same fragment as in myc-/Flag-hDrn1, between BamHI and XhoI sites of pET-28a; pET-28a with BamHI/XhoI would place the His and T7 tags at the N-terminus (surmised); also called T7- and His-tagged hDrn1 protein; His-tagged hDrn1; source: E. coli BL21 (DE3) CodonPlus-RIPL, purified (Ni-NTA)
B1 was tested, and the binding was “binds”.
